Twelve molecules from PubChem BioAssay AID248 (DTP/NCI, 2004) can be followed below.

The list shows only some results of the screen, not a fair sample: it gathers tests that were run many times, whatever their T/C, doses with no T/C, and many T/C values between a quarter and a half above the control. Other doses and runs of a compound stand elsewhere. T/C gives the treated animals as a percentage of the vehicle group. Some entries give survivors of the animals treated and no T/C: the source holds a T/C of zero for them, seemingly a mark for toxic or unscored doses. Some survivor counts are full or nearly so, which does not show that the dose was tolerated: the source hardly ever lists a survival T/C far under the control, and the zero likely stands for such cases as well. Counts of survivors are from the toxicity check (mostly the fifth day) where no day follows; animals may have died later. Schedules are NCI's codes, taken here to give the interval after Q, in days (D) or hours (H), and the number of doses after X. Some schedule codes hold Z or #, which are not explained here. For survival time, the PubChem record calls one and a half times the control and up active, and a quarter to a half above the control has no call in these data; cut-offs in other NCI protocols can differ. Some entries hold several experiments; their values stand side by side, smallest first. Counts like (3×) count equal records among those shown. Some T/C values carry the count of animals alive at the toxicity check (mostly the fifth day); where none is given, no animal had died by that day.

The experiment relates to L1210 leukemia ip in BDF1 mice, survival T/C. The experiment in a line: NCI In Vivo Anticancer Drug Screen. Data for tumor model L1210 Leukemia (intraperitoneal) in B6D2F1 (BDF1) mice. To be noted: higher T/C = longer survival.
The mark [1] stands for this setting: T/C endpoint: mean survival time, dose: 191.2 mg/kg/injection, schedule: Q02DX010 (ip), vehicle: carboxymethylcellulose (CMC).
[2] abbreviates: T/C endpoint: mean survival time, dose: 200.0 mg/kg/injection, schedule: Q01DX009 (ip), vehicle: saline with Tween-80.
Where [3] appears, read: T/C endpoint: mean survival time, dose: 400.0 mg/kg/injection, schedule: Q04DX003 (ip), vehicle: saline with Tween-80.
The mark [4] stands for this setting: T/C endpoint: mean survival time, dose: 50.0 mg/kg/injection, schedule: Q01DX009 (ip), vehicle: Klucel (hydroxypropylcellulose) (HPC).
[5] abbreviates: T/C endpoint: mean survival time, dose: 100.0 mg/kg/injection, schedule: Q01DX009 (ip), vehicle: Klucel (hydroxypropylcellulose) (HPC).
[6] abbreviates: T/C endpoint: mean survival time, dose: 200.0 mg/kg/injection, schedule: Q01DX009 (ip), vehicle: Klucel (hydroxypropylcellulose) (HPC).

In the case of `C[C@@H]1C[C@@H]([C@H](O)CC2CC(=O)NC(=O)C2)C(=O)[C@@H](C)C1`, the T/C was 94, 97, 101, 104 % of control (T/C endpoint: mean survival time, dose: 5.0 mg/kg/injection, schedule: Q01DX009 (ip), vehicle: saline); 103, 107, 108, 109 % of control (T/C endpoint: mean survival time, dose: 10.0 mg/kg/injection, schedule: Q01DX009 (ip), vehicle: saline); 112, 113, 117, 123 % of control (T/C endpoint: mean survival time, dose: 20.0 mg/kg/injection, schedule: Q01DX009 (ip), vehicle: saline); 145 % of control (T/C endpoint: mean survival time, dose: 24.0 mg/kg/injection, schedule: Q01DX015 (ip), vehicle: saline); 134 % of control (T/C endpoint: mean survival time, dose: 30.0 mg/kg/injection, schedule: Q01DX009 (ip), vehicle: saline); 133 and 135 % of control (T/C endpoint: mean survival time, dose: 30.0 mg/kg/injection, schedule: Q01DX Z (ip), vehicle: carboxymethylcellulose (CMC)). Moreover, the T/C was 137 % of control (T/C endpoint: mean survival time, dose: 36.0 mg/kg/injection, schedule: Q01DX015 (ip), vehicle: saline); 113, 114, 118, 122 % of control (T/C endpoint: mean survival time, dose: 36.5 mg/kg/injection, schedule: Q02DX010 (ip), vehicle: carboxymethylcellulose (CMC)); 138 % of control (T/C endpoint: mean survival time, dose: 40.0 mg/kg/injection, schedule: Q01DX009 (ip), vehicle: acetone); 123, 130, 136 % of control (2×) (T/C endpoint: mean survival time, dose: 40.0 mg/kg/injection, schedule: Q01DX009 (ip), vehicle: saline); 140 % of control [4 of 6 alive] (T/C endpoint: mean survival time, dose: 50.0 mg/kg/injection, schedule: Q01DX009 (ip), vehicle: saline with Tween-80); 125 % of control (T/C endpoint: mean survival time, dose: 54.0 mg/kg/injection, schedule: Q01DX015 (ip), vehicle: saline). Further, the T/C was 111, 117, 131, 143 % of control (T/C endpoint: mean survival time, dose: 57.0 mg/kg/injection, schedule: Q02DX010 (ip), vehicle: carboxymethylcellulose (CMC)); 145 % of control (T/C endpoint: mean survival time, dose: 57.0 mg/kg/injection, schedule: Q02DX010 (ip), vehicle: other); 126 % of control (T/C endpoint: mean survival time, dose: 60.0 mg/kg/injection, schedule: Q01DX009 (ip), vehicle: Klucel (hydroxypropylcellulose) (HPC)); 129 % of control (T/C endpoint: mean survival time, dose: 60.0 mg/kg/injection, schedule: Q01DX009 (ip), vehicle: saline with Tween-80); 129 % of control (T/C endpoint: mean survival time, dose: 84.0 mg/kg/injection, schedule: Q02DX008 (ip), vehicle: saline); 121, 132, 137, 141 % of control (T/C endpoint: mean survival time, dose: 85.0 mg/kg/injection, schedule: Q02DX010 (ip), vehicle: carboxymethylcellulose (CMC)). Moreover, the T/C runs as follows: (T/C endpoint: mean survival time, dose: 120.0 mg/kg/injection, schedule: Q04DX003 (ip), vehicle: Klucel (hydroxypropylcellulose) (HPC)) 127 % of control; (T/C endpoint: mean survival time, dose: 127.5 mg/kg/injection, schedule: Q02DX010 (ip), vehicle: carboxymethylcellulose (CMC)) 65, 82, 107, 128 % of control; under setting [1], 65, 73, 104 % of control. The survivor count by setting is: (T/C endpoint: mean survival time, dose: 80.0 mg/kg/injection, schedule: Q01DX009 (ip), vehicle: acetone) 5 of 6; (T/C endpoint: mean survival time, dose: 135.0 mg/kg/injection, schedule: Q01DX009 (ip), vehicle: saline) 4 of 6; (T/C endpoint: mean survival time, dose: 160.0 mg/kg/injection, schedule: Q01DX009 (ip), vehicle: acetone) 0 of 6; under setting [1], 6 of 6; under setting [2], 1 of 6; (T/C endpoint: mean survival time, dose: 200.0 mg/kg/injection, schedule: Q01DX009 (ip), vehicle: saline) 0 of 6. Besides, the survivor count was 5 of 10 (T/C endpoint: mean survival time, dose: 270.0 mg/kg/injection, schedule: Q01DX001 (ip), vehicle: alkali diluted with saline); 5 of 6 (T/C endpoint: mean survival time, dose: 270.0 mg/kg/injection, schedule: Q04DX003 (ip), vehicle: saline); 1 of 10 (T/C endpoint: mean survival time, dose: 320.0 mg/kg/injection, schedule: Q## X032 (ip), vehicle: saline); 0 of 6 under setting [3]; 2 of 10 (T/C endpoint: mean survival time, dose: 405.0 mg/kg/injection, schedule: Q01DX001 (ip), vehicle: alkali diluted with saline); 0 of 6 (T/C endpoint: mean survival time, dose: 410.0 mg/kg/injection, schedule: Q04DX003 (ip), vehicle: saline). Further, the survivor count is 0 of 6 (T/C endpoint: mean survival time, dose: 615.0 mg/kg/injection, schedule: Q04DX003 (ip), vehicle: saline) and 3 of 8 (T/C endpoint: median survival time, dose: 400.0 mg/kg/injection, schedule: Q04DX003 (ip), vehicle: alkali diluted with saline).
Turning to `O=C(Nc1ccc(Cl)c(Cl)c1)O/N=C/c1ccccn1`, the survivor count under setting [2] was 6 of 6.
With `Cc1[nH]c(N)nc(=S)c1CCCN(C(=O)c1ccccc1)c1ccccc1`, for the setting “T/C endpoint: mean survival time, dose: 75.0 mg/kg/injection, schedule: Q01DX001 (ip), vehicle: Klucel (hydroxypropylcellulose) (HPC)”, the survivor count was 6 of 6.
`O=[N+]([O-])c1ccc(S)c(Cl)c1`: the survivor count is 0 of 6 under setting [4]; 1 of 6 under setting [5]; 0 of 6 under setting [6]; 0 of 6 (T/C endpoint: mean survival time, dose: 400.0 mg/kg/injection, schedule: Q01DX009 (ip), vehicle: Klucel (hydroxypropylcellulose) (HPC)).
`OC(C/C=C/c1ccccc1)c1ccccc1` (stereo not drawn): under setting [6], the survivor count is given as 3 of 3.
Turning to `CC1(C)Cc2cccc(OC(=O)NO)c2O1`, the survivor count (T/C endpoint: mean survival time, dose: 100.0 mg/kg/injection, schedule: Q01DX001 (ip), vehicle: Klucel (hydroxypropylcellulose) (HPC)) is listed as 0 of 6; the survivor count (T/C endpoint: mean survival time, dose: 200.0 mg/kg/injection, schedule: Q01DX001 (ip), vehicle: Klucel (hydroxypropylcellulose) (HPC)) was 0 of 6; the survivor count (T/C endpoint: mean survival time, dose: 400.0 mg/kg/injection, schedule: Q01DX001 (ip), vehicle: Klucel (hydroxypropylcellulose) (HPC)) is 0 of 6.
For `NC(CCl)=NCC1CCCCCCC1`, the survivor count is recorded as 3 of 3 (T/C endpoint: mean survival time, dose: 6.25 mg/kg/injection, schedule: Q01DX009 (ip), vehicle: Klucel (hydroxypropylcellulose) (HPC)); 3 of 3 (T/C endpoint: mean survival time, dose: 12.5 mg/kg/injection, schedule: Q01DX009 (ip), vehicle: Klucel (hydroxypropylcellulose) (HPC)); 3 of 3 (T/C endpoint: mean survival time, dose: 25.0 mg/kg/injection, schedule: Q01DX009 (ip), vehicle: Klucel (hydroxypropylcellulose) (HPC)); 2 of 3 under setting [4]; 0 of 3 under setting [5]; 0 of 3 (T/C endpoint: mean survival time, dose: 200.0 mg/kg/injection, schedule: Q04DX002 (ip), vehicle: Klucel (hydroxypropylcellulose) (HPC)). Further, where the note is “T/C endpoint: mean survival time, dose: 400.0 mg/kg/injection, schedule: Q04DX002 (ip), vehicle: Klucel (hydroxypropylcellulose) (HPC)”, the survivor count is 0 of 3.
Consider `CSCCC(NC(=O)c1ccccc1)C(N)=O` (stereo not drawn), for which the survivor count (T/C endpoint: mean survival time, dose: 400.0 mg/kg/injection, schedule: Q01DX009 (ip), vehicle: saline with Tween-80) is given as 3 of 6.
Regarding `CC(C)(C)C(/C=N/N=C(N)N)=N\N=C(N)N`, the survivor count runs as follows: (T/C endpoint: mean survival time, dose: 240.0 mg/kg/injection, schedule: Q01DX Z (ip), vehicle: methylcellulose (MC)) 0 of 6; (T/C endpoint: mean survival time, dose: 360.0 mg/kg/injection, schedule: Q01DX Z (ip), vehicle: methylcellulose (MC)) 0 of 6; (T/C endpoint: mean survival time, dose: 480.0 mg/kg/injection, schedule: Q01DX Z (ip), vehicle: methylcellulose (MC)) 0 of 6; (T/C endpoint: mean survival time, dose: 840.0 mg/kg/injection, schedule: Q01DX Z (oral), vehicle: methylcellulose (MC)) 3 of 6.
As to `CCOc1ccc(Nc2c3ccccc3nc3ccccc23)cc1`, the T/C (T/C endpoint: mean survival time, dose: 44.0 mg/kg/injection, schedule: Q01DX009 (ip), vehicle: saline with Tween-80) was 139 % of control. The survivor count (T/C endpoint: mean survival time, dose: 100.0 mg/kg/injection, schedule: Q01DX009 (ip), vehicle: saline with Tween-80) is listed as 6 of 6 and the survivor count (T/C endpoint: mean survival time, dose: 150.0 mg/kg/injection, schedule: Q01DX009 (ip), vehicle: saline with Tween-80) is reported as 4 of 6.
As to `Cc1ccccc1N1CCN(c2c3c(nc4ccccc24)CCCCC3)CC1`, where the note is “T/C endpoint: mean survival time, dose: 200.0 mg/kg/injection, schedule: Q01DX001 (ip), vehicle: saline”, the survivor count is reported as 3 of 4.
For the molecule `CC[N+](C)(CC)CCCNC(=O)C(c1ccccc1)c1ccccc1`, the survivor count runs as follows: (T/C endpoint: mean survival time, dose: 200.0 mg/kg/injection, schedule: Q04DX003 (ip), vehicle: saline with Tween-80) 1 of 6; under setting [3], 0 of 6.
